Where “and” joins values, the source holds several entries; their conditions need not be identical. Equal values may be shown once. The whole screen tested about 300,000 compounds, of which about 3,700 (1.2%) were called active. The shares of active, inactive and inconclusive entries below differ from those in the screen. Calls follow the shape of the full dose curve; tested in HEK293 cells. A potency beside an inconclusive call is a rough fit, not a confirmed value.
Experiment: qHTS for Inhibitors of binding or entry into cells for Lassa Virus; also: nearly all actives have a fitted effect of over 50% in size
Settings: Lassa virus pseudotype entry inhibition, cell reporter; activity change, negative = inhibition: at 37.9 µM (top of the series) unless noted
% is scaled to controls: 0 for no effect and ±100 for the full control effect; potency is read from the fitted curve at half-maximal effect.

Structure (SMILES)	activity change, negative = inhibition	Potency
N#Cc1ccccc1S(=O)(=O)N1CCN(C(=O)C2CCC2)CC1	inactive: -4.16%	–
CCOc1cccc(-c2nnc3sc(C4CCCCC4)nn23)c1	–	inconclusive: 10.3 µM [inhibitor, partial curve]
Cc1ccc(-c2cc(C(=O)Oc3ccccc3)c3cccc(C)c3n2)cc1	–	inconclusive: 5.62 µM [inhibitor, single point]
COc1ccc(CN(CCC(c2ccc(F)cc2)C2CCOC(C)(C)C2)C(=O)c2ccco2)cc1 (stereo unspecified)	–	inconclusive: 29.1 µM [inhibitor, single point] and inconclusive: 7.08 µM [inhibitor, partial curve, poor fit]
CCOC(=O)c1sc(Nc2nc3c(OC)cccc3s2)cc1C	–	inconclusive: 35.5 µM [inhibitor, single point]
CCCN(CCC)c1nn2c(=O)c(C(=O)NCc3cccc(OC)c3)cnc2s1	inactive: 23.4% [at 46.1 µM]	–
CCCCN1C(=O)C(O)(c2c(C)[nH]c3ccccc23)c2cc(Br)ccc21 (stereo unspecified)	–	inconclusive: 5.62 µM [inhibitor, full curve, poor fit]
Cc1noc(C)c1COC(=O)c1csc2c1CCC(C)C2 (stereo unspecified)	inactive: 13.6%	–
CCCn1c(=O)c2[nH]cnc2n(-c2ccccc2C)c1=O	–	inconclusive: 3.98 µM [inhibitor, single point]
Cc1ccc(NC(=O)CNc2cccc(C)c2C)c(C)c1	inactive: 29%	–
CCc1ccc(NC(=O)N(Cc2c[nH]c3ccccc23)C2CCCCCC2)cc1	–	inconclusive: 5.01 µM [inhibitor, full curve, poor fit]
COc1ccc(N2CCN(C(CNC(=O)C(=O)NCc3ccc(F)cc3)c3cccnc3)CC2)cc1 (stereo unspecified)	–	inconclusive: 11.2 µM [inhibitor, partial curve]
COC(=O)[C@@]1(Cc2ccc(F)cc2)[C@H]2c3cc(C(=O)N(C)C)n(Cc4ccc(OC)c(OC)c4)c3C[C@H]2CN1C(=O)c1ccccc1	–	inconclusive: 23.1 µM [inhibitor, single point]
Cc1cccc(OCCCC(=O)NC(C)c2ccccc2)c1 (stereo unspecified)	inactive: -1.52%	–
COc1ccc(OC)c(/C=N/n2c(-c3n[nH]c4c3CCC4)n[nH]c2=S)c1	–	inconclusive: 1.26 µM [inhibitor, single point]
CCOC(=O)c1oc2ccccc2c1COC(=O)CNC(=O)c1cc(OC)c(OC)c(OC)c1	inactive: -3.5%	–
COc1cc(/C=C2/CCCC(C(=O)C(F)(F)F)=C2O)ccc1O	inactive: 6.97%	–
O=C(Nc1ccc(S(=O)(=O)N2CCCC2)cc1)C1CCCCC1	inactive: -27.6% [at 46.1 µM]	–
O=C(NCc1ccccc1)C(=O)NCC(c1ccco1)S(=O)(=O)c1ccccc1 (stereo unspecified)	inactive: -7.81% [at 46.1 µM]	–
O=c1c2ccccc2nc(COc2ccccc2)n1/N=C/c1c[nH]c2ccccc12	–	inconclusive: 1.58 µM [inhibitor, partial curve, poor fit]
Cc1ccc(NC(=O)COC(=O)c2cccc3c2C(=O)c2ccccc2C3=O)c(C)c1	inactive: -24.9%	–
COc1ccc(CN2CCNC(=O)C2CC(=O)NCCc2c[nH]c3ccccc23)c(OC)c1 (stereo unspecified)	–	inconclusive: 12.6 µM [inhibitor, partial curve, poor fit]
COc1ccc([C@@]23Oc4cc(OC)cc(OC)c4[C@]2(O)[C@H](O)[C@H](C(=O)N(C)C)[C@H]3c2ccccc2)cc1	–	inconclusive: 0.126 µM [inhibitor, full curve, poor fit]

Rewritten as comma-separated lines: entries from further up.
Structure (SMILES),"activity change, negative = inhibition",Potency
COc1ccc(N2CCN(C(CNC(=O)C(=O)NCc3ccc(F)cc3)c3cccnc3)CC2)cc1 (stereo unspecified),–,"inconclusive: 11.2 µM [inhibitor, partial curve]"
COC(=O)[C@@]1(Cc2ccc(F)cc2)[C@H]2c3cc(C(=O)N(C)C)n(Cc4ccc(OC)c(OC)c4)c3C[C@H]2CN1C(=O)c1ccccc1,–,"inconclusive: 23.1 µM [inhibitor, single point]"
Cc1cccc(OCCCC(=O)NC(C)c2ccccc2)c1 (stereo unspecified),inactive: -1.52%,–
COc1ccc(OC)c(/C=N/n2c(-c3n[nH]c4c3CCC4)n[nH]c2=S)c1,–,"inconclusive: 1.26 µM [inhibitor, single point]"
CCOC(=O)c1oc2ccccc2c1COC(=O)CNC(=O)c1cc(OC)c(OC)c(OC)c1,inactive: -3.5%,–
COc1cc(/C=C2/CCCC(C(=O)C(F)(F)F)=C2O)ccc1O,inactive: 6.97%,–
O=C(Nc1ccc(S(=O)(=O)N2CCCC2)cc1)C1CCCCC1,inactive: -27.6% [at 46.1 µM],–
O=C(NCc1ccccc1)C(=O)NCC(c1ccco1)S(=O)(=O)c1ccccc1 (stereo unspecified),inactive: -7.81% [at 46.1 µM],–
O=c1c2ccccc2nc(COc2ccccc2)n1/N=C/c1c[nH]c2ccccc12,–,"inconclusive: 1.58 µM [inhibitor, partial curve, poor fit]"
Cc1ccc(NC(=O)COC(=O)c2cccc3c2C(=O)c2ccccc2C3=O)c(C)c1,inactive: -24.9%,–

(cont.)

Structure (SMILES)	activity change, negative = inhibition	Potency
COc1ccc(OC)c(N(C(=O)c2ccco2)C(C(=O)NC2CCCC2)c2ccc(N3CCOCC3)cc2)c1 (stereo unspecified)	inactive: 10.4%	–
COc1cccc(C2=NS(=O)(=O)N(C)C(C(=O)Nc3cccc(O)c3)=C2)c1	inactive: -26.8% [at 46.1 µM]	–
CS(=O)(=O)N(Cc1ccccc1)c1ccc(C(=O)NCCSCc2ccco2)cc1	–	inconclusive: 13 µM [inhibitor, partial curve, poor fit]
Cc1cccc(Cc2c(C)nc3c(C(=O)NCc4ccco4)cnn3c2C)c1	–	inconclusive: 29.1 µM [inhibitor, single point]
CC(=O)NNC(=O)CCn1nnc2ccccc21	–	inconclusive: 0.562 µM [activator, full curve, poor fit]
O=C1c2ccccc2C(=O)C12OC2c1cccc2ccccc12 (stereo unspecified)	–	inconclusive: 14.1 µM [inhibitor, partial curve, poor fit]
CCOC(=O)C1(CCCc2ccccc2)CCN(C(=O)C2=C(C)OCCO2)CC1	–	inconclusive: 7.08 µM [inhibitor, partial curve, poor fit]
CCOC(=O)c1cc2cc3ccccc3cc2[nH]1	–	inconclusive: 3.26 µM [activator, partial curve, poor fit]
O=C(CN1C(=O)C2C3C=CC(C3)C2C1=O)OCC(=O)c1ccccc1 (stereo unspecified)	inactive: 6.01%	–
COc1ccccc1CN(C)C(=O)CSCC(=O)Nc1ccccc1F	inactive: -16.8%	–
Cc1cccc(-c2nc(N)nc(N)n2)c1	inactive: 0.118%	–
Cc1ccc(C)c(CSc2nnc(-c3cccnc3)o2)c1	inactive: -13.9% [at 14.3 µM]	–
C/C(=N\NC(=S)NC(C)C)c1ccc(C(C)(C)C)cc1	–	inconclusive: 6.31 µM [inhibitor, partial curve, poor fit]
O=C(Cc1c[nH]c2ccccc12)N1CCc2ccccc21	inactive: 27.6%	–
CCN1CCC(O)(/C=C/c2ccc(C(C)C)cc2)C(C(=O)/C=C/c2ccc(C(C)C)cc2)C1 (stereo unspecified)	–	active: 14.1 µM
Cc1ccc(C(=O)Nc2ccc(C(=O)N/N=C/c3ccccn3)cc2)cc1	inactive: -7.69% [at 46.1 µM]	–
Brc1ccc(C2=Nc3cccc4cccc(c34)N2)o1	inactive: -10.8%	–
COc1ccccc1C(=O)Nc1ccnn1C1CCN(Cc2cnc(N(C)C)s2)CC1	inactive: 3.11% [at 46.1 µM]	–
Cc1ccc(Cl)cc1NC(=O)c1ccc(CSc2nnnn2C)cc1	inactive: 1.36%	–
CCOC(=O)C(C)n1cnc2sc3c(c2c1=O)CCC3 (stereo unspecified)	inactive: 10.6%	–
O=C(CSc1ncnc2nc[nH]c12)c1ccccc1	–	inconclusive: 0.631 µM [activator, partial curve, poor fit]
COC(=O)c1cc(NC(=O)Nc2cccc(Cl)c2)ccc1Cl	–	inconclusive: 20.6 µM [inhibitor, single point]
CC(=O)COC(=O)C1=NN(c2ccccc2)C(=O)CC1	–	inconclusive: 0.0891 µM [inhibitor, full curve, poor fit]

From PubChem BioAssay AID540256 (National Center for Advancing Translational Sciences (NCATS), 2011)
